No constants are given. Whether binding was seen depends on the method and setting.
Molecular target: ICP8-CTD WT (His-tagged entire C-terminal domain of ICP8, residues 1036-1196) (herpes simplex virus type 1 (HSV-1)) (UniProt P17470)
Experiment: label-free thermal shift (nanoDSF), dose series refitted with MoltenProt; 5 μM ICP8Δ60 preincubated with 10 to 100 μM CTD fragment (1:2 to 1:20 M ratio) for 3 h at room temperature; two-state reversible unfolding model; both purified

Sequences of proteins named here, by UniProt entry; tags and fusion partners are left off. Residues count along the entry.
UniProt P17470, residues 1036-1196: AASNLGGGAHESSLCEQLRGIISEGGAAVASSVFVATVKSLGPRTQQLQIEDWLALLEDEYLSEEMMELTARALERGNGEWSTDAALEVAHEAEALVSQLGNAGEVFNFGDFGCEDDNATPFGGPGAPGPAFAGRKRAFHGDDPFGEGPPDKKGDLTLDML

Which binding does the source give for “ICP8-CTD WT (His-tagged entire C-terminal domain of ICP8, residues 1036-1196) (from UniProt P17470 1036-1196) (domain or fragment)” here?
Its binding is “no binding (tested: 10 to 100 μM)”.

From publication PMC12409425, “Two distinct protein-protein interfaces drive cooperative binding of the herpes simplex virus protein ICP8 to ssDNA, filament formation and annealing essential for viral replication” (The Journal of Biological Chemistry, 2025)
